{"sequences": {"note": "Amino acid sequences for entries named in this document (tags omitted).", "UniProt P20263": "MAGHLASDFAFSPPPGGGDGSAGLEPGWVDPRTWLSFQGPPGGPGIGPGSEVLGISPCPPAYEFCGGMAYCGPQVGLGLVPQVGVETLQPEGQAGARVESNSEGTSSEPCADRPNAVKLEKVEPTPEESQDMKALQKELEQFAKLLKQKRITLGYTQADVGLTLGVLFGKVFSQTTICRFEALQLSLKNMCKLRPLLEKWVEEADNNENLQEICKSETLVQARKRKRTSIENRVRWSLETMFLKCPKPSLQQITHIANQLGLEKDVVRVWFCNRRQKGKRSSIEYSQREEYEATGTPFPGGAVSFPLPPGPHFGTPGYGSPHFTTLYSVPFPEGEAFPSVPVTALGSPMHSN", "UniProt Q8BX22": "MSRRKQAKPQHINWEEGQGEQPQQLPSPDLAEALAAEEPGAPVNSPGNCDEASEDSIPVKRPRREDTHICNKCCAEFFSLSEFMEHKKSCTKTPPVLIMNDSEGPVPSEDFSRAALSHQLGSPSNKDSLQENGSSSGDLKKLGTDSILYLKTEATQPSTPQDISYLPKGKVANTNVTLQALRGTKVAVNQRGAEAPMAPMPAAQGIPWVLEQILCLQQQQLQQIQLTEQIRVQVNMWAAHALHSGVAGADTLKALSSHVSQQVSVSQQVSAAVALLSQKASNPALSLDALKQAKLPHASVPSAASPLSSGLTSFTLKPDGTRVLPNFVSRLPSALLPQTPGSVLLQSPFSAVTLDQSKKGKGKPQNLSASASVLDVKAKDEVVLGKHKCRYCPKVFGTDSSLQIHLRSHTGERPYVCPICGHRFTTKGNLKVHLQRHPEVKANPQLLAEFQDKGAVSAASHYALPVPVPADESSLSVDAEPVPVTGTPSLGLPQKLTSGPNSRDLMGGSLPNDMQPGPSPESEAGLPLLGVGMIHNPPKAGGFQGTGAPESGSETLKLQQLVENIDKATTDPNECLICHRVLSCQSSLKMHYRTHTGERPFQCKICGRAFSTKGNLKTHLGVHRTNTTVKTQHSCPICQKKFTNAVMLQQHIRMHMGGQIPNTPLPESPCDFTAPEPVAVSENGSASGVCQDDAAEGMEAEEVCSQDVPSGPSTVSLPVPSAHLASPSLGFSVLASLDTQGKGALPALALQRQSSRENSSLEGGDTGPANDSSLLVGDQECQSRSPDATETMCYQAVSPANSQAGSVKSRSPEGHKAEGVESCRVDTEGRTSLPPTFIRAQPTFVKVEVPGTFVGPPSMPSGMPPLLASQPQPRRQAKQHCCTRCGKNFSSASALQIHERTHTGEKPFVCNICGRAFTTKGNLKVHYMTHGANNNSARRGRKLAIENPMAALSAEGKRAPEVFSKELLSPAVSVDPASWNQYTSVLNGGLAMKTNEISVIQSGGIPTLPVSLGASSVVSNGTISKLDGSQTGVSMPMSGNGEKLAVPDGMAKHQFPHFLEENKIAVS"}, "source": "paper PMC2860243", "binders": {"B1": {"name": "Sall1 (protein, UniProt Q9ER74 1-1322)", "chain": "MSRRKQAKPQHFQSDPEVASLPRRDGDTEKGQPSRPTKSKDAHVCGRCCAEFFELSDLLLHKKSCTKNQLVLIVNESPASPAKTFPPGPSLNDPDDQMKDAANKADQEDCSDLSEPKGLDREESMEVEVPVATTTTTTTGGSGGSGGSTLSGVTNITTPSCHSGCSSGTSAITTSLPQLGDLTTLGNFSVINSNVIIENLQSTKVAVAQFSQEARCGGASGGKLLISTLMEQLLALQQQQIHQLQLIEQIRHQILLLASQSADLPAAPSIPSQGTLRTSANPLTTLSSHLSQQLAVAAGLAQSLASQSANISGVKQLPHVQLPQSSSGTSIVPPSGGTSPNMSIVTAAVPTPSSEKVASNAGASHVSSPAVSASSSPAFAISSLLSPESNPLLPQPTPANAVFPTPLPNIATTAEDLNSLSALAQQRKSKPPNVTAFEAKSTSDEAFFKHKCRFCAKVFGSDSALQIHLRSHTGERPFKCNICGNRFSTKGNLKVHFQRHKEKYPHIQMNPYPVPEHLDNVPTSTGIPYGMSIPSEKPVTSWLDTKPVLPTLTTSVGLPLPPTLPSLTPFIKTEEPAPIPISHSAASPQGSVKSDSGAPDLATRNPSGVPEEVEGSAVPPFGGKGEESNMASSAVPTAGNSTLNSPVADGGPGGTTFTNPLLPLMSEQFKAKFPFGGLLDSAQASETSKLQQLVENIDKKATDPNECIICHRVLSCQSALKMHYRTHTGERPFKCKICGRAFTTKGNLKTHYSVHRAMPPLRVQHSCPICQKKFTNAVVLQQHIRMHMGGQIPNTPVPDNYPESMESDTGSFDEKNFDDLDNFSDENMEECPEGSIPDTPKSADASQDSLSSSPLPLEMSSIAALENQMKMINAGLAEQLQASLKSVENGSMEGDVLTNDSSSVGGDMESQSAGSPAISESTSSMQALSPSNSTQEFHKSPGMEEKPQRVGPGEFANGLSPTPVNGGALDLTSSHAEKIIKEDSLGILFPFRDRGKFKNTACDICGKTFACQSALDIHYRSHTKERPFICTVCNRGFSTKGNLKQHMLTHQMRDLPSQLFEPSSNLGPNQNSAVIPANSLSSLIKTEVNGFVHVSPQDSKDAPTSHVPQGPLSSSATSPVLLPALPRRTPKQHYCNTCGKTFSSSSALQIHERTHTGEKPFACTICGRAFTTKGNLKVHMGTHMWNSTPARRGRRLSVDGPMTFLGGNPVKFPEMFQKDLAARSGSGDPSSFWNQYTAALSNGLAMKANEISVIQNGGIPPIPGSLGSGSSPISGLTGNVEKLGNSEPSAPLAGLEKMASSENGTNFRFTRFVEDSKEIVTS"}, "B2": {"name": "Sall2 (protein, UniProt Q9QX96 1-1004)", "chain": "MSRRKQRRPQQLISDCEGPSASENGDASEEDHPQVCAKCCAQFSDPTEFLAHQNSCCTDPPVMVIIGGQENPSNSSASSAPRPEGHSRSQVMDTEHSNPPDSGSSGAPDPTWGPERRGEESSGQFLVAATGTAAGGGGGLILASPKLGATPLPPESTPAPPPPPPPPPPPGVGSGHLNIPLILEELRVLQQRQIHQMQMTEQICRQVLLLGSLGQTVGAPASPSELPGTGAASSTKPLLPLFSPIKPAQTGKTLASSSSSSSSSGAEPPKQAFFHLYHPLGSQHPFSVGGVGRSHKPTPAPSPALPGSTDQLIASPHLAFPGTTGLLAAQCLGAARGLEAAASPGLLKPKNGSGELGYGEVISSLEKPGGRHKCRFCAKVFGSDSALQIHLRSHTGERPYKCNVCGNRFTTRGNLKVHFHRHREKYPHVQMNPHPVPEHLDYVITSSGLPYGMSVPPEKAEEEAGTPGGGVERKPLVASTTALSATESLTLLSTGTSTAVAPGLPTFNKFVLMKAVEPKSKADENTPPGSEGSAIAGVADSGSATRMQLSKLVTSLPSWALLTNHLKSTGSFPFPYVLEPLGASPSETSKLQQLVEKIDRQGAVAVASTASGAPTTSAPAPSSSASGPNQCVICLRVLSCPRALRLHYGQHGGERPFKCKVCGRAFSTRGNLRAHFVGHKTSPAARAQNSCPICQKKFTNAVTLQQHVRMHLGGQIPNGGSALSEGGGAAQENSSEQSTASGPGSFPQPQSQQPSPEEEMSEEEEEDEEEEEDVTDEDSLAGRGSESGGEKAISVRGDSEEVSGAEEEVATSVAAPTTVKEMDSNEKAPQHTLPPPPPPPDNLDHPQPMEQGTSDVSGAMEEEAKLEGTSSPMAALTQEGEGTSTPLVEELNLPEAMKKDPGESSGRKACEVCGQSFPTQTALEEHQKTHPKDGPLFTCVFCRQGFLDRATLKKHMLLAHHQVPPFAPHGPQNIATLSLVPGCSSSIPSPGLSPFPRKDDPTMP"}, "B3": {"name": "Sall3 (protein, UniProt Q62255 1-1320)", "chain": "MSRRKQAKPQHLKSDEELPPQDGASEHGVPGDGAEDADSGSESRSGSEETSVCEKCCAEFFKWADFLQHKKTCTKNPLVLIVHDDEPAPPSEDFPEPSPASSPSDRTESEVAEEVAPTEGSEVKAATKEAEPMDVEVSTDKGPPGPSVPPPPPALPPQPEPAAFSMPSTNVTLETLLSTKVAVAQFSQGARAGGTTGAGGSVGAVAIPMILEQLVALQQQQIHQLQLIEQIRSQVALMSRQPGPPLKPSASAPGTASVQLQGLTPHAALQLSAGPATASAGSGSTLPAAFDGPQHLSQPASGTSTPCSTSAAPPDSGAHPACSTGPAPGAVAAASSTVGNAVQPQNASTPPALGPGPLLSSASNLPNPLLPQTSSSSVIFPNPLVSIAATANALDPLSALMKHRKGKPPNVSVFEPKASAEDPFFKHKCRFCAKVFGSDSALQIHLRSHTGERPFKCNICGNRFSTKGNLKVHFQRHKEKYPHIQMNPYPVPEYLDNVPTCSGIPYGMSLPPEKPVTTWLDSKPVLPTVPTSVGLQLPPTVPGTHNYTDSPSITPVSRSPQRPSPASSECTSLSPGLNNTESGITVRPESPQPLLGGPSLTKAEPVSLPCTSTRTGDAPVVGGQVSGLPTSAATAVTDSACTSLGSPGLPAVSDQFKAQFPFGGLLDSMQTSETSKLQQLVENIDKKMTDPNQCVICHRVLSCQSALKMHYRTHTGERPFKCKICGRAFTTKGNLKTHFGVHRAKPPLRVQHSCPICQKKFTNAVVLQQHIRMHMGGQIPNTPLPEGLQEAMDADLPFDEKNAETLSSFDDDIDENSMEEDSELKDTASDSSKPLLSYSGSCPPSPPSVISSIAALENQMKMIDSVMNCQQLANLKSVENGSGESDRLSNDSSSAVGDLESRSAGSPALSESSSSQALSPAHSNGESFRSKSPGLGHQEDPQEIPLKTERLDSPPPGPGNGGALDLTAGHPGRPLIKEEAPFSLLFLSRERGKCASTVCGVCGKPFACKSALEIHYRSHTKERRFVCTVCRRGCSTMGNLKQHLLTHKLKELPSQVFDPNFTLGPSHSTPSLASSPAPTMIKMEVNGHSKAIALGEGPALPAGVQVPTGPQTVMSPGLAPMLAPPPRRTPKQHNCQSCGKTFSSASALQIHERTHTGEKPFGCTICGRAFTTKGNLKVHMGTHMWNNAPARRGRRLSVENPMALLGGDALKFSEMFQKDLAARAMNVDPSFWNQYAAAITNGLAMKNNEISVIQNGGIPQLPVSLGGGAIPPLGAMASGVDKARTGSSPPIVSLDKASSETGASRPFARFIEDNKEIGIN"}, "B4": {"name": "Bend3 (protein, UniProt Q6PAL0 1-825)", "chain": "MNSTEISEDVEEVLKNNPVKAEGSDATLDCSRNSRASEKHLLESVLTALHDSSKRKQLDSDGQPDSVPSVKRRRLIPEALLAGMRTRENSSPCQGNGEPASRGRSGSCAWPAEEEPSTEATVPSYKKPLYGISHKIMEKKNPPSGDLLSPYELFEKANSSSGPSPLRLLSESQKRECGVGVATDGDLNIYFLIQKMFYMLNGLTTNMSQLHSKMDLLSLEVSRVKKQVSPSELVAKFQPPPEYQLTASELKQIAEQSLSCGDLACRLLLQLFPELFSDVDFSRGCSACGFAAKRKLESLHLQLIRNYVEVYYPNVKDTAVWQAECLPQLNDFFSRFWAQREMEDSQPGGQVTNFFEADQVDAGHFLDNKDQEEALSLDRSSTIASDHVVDTQDLTEFLDEASSPGEFAVFLLHRLFPELFDHRKLGEQYSCYGDGGKQELDPQRLQIIRNYTEIYFPDMQEEEAWLQQCAQRINDELEGLGLEGGSEGEAPRDDCYDSSSLPDDISVVKVEDNFEGERPGRRSKKIWLVPIDFDKLEIPQPDFEMPGSDCLLSKEQLRSIYESSLSIGNFASRLLVHLFPELFTHENLRKQYNCSGSLGKKQLDPARIRLIRHYVQLLYPRAKNDRVWTLEFVGKLDERCRRRDTEQRRSYQQQRKVHVPGPECRDLASYAINPERFREEFEGPPLPPERSSKDFCKIPLDELVVPSPDFPVPSPYLLSDKEVREIVQQSLSVGNFAARLLVRLFPELFTTENLRLQYNHSGACNKKQLDPTRLRLIRHYVEAVYPVEKMEEVWHYECIPSIDERCRRPNRKKCDILKKAKKVEK"}, "B5": {"name": "Cxxc5 (protein, UniProt Q91WA4 1-317)", "chain": "MSSLGGGSQDAGGSSSSSNTNSSSGSGQKAGGTDKSTAVAATTAPTSVADDAPPPERRNKSGIISEPLNKSLRRSRPLSHYSSFGSSGGGGSMMGVESADKAAAAAASLLANGHDLAAAMAVDKSNPTSKHKSGAVASLLSKAERATELAAEGQLTLQQFAQSTEMLKRVVQEHLPLMSEAGAGLPDMEAVAGAEALNGQSDFPYLGAFPINPGLFIMTPAGVFLAESALHMAGLAEYPMQGELASAISSGKKKRKRCGMCAPCRRRINCEQCSSCRNRKTGHQICKFRKCEELKKKPSAALEKVMLPSGAAFRWFQ"}}, "key": {"[1]": {"target": "FLAG-Oct4 (F-Oct4) (mouse) (UniProt P20263)", "test": "affinity purification with mass spectrometry; FLAG-affinity purification of F-Oct4 from 1.5 ml ESC nuclear extract on anti-FLAG M2 agarose, buffer C-100 (20 mM HEPES pH 7.6, 100 mM KCl), washes with 0.02% NP-40, Benzonase, 4°C, FLAG peptide elution; three purifications; control ZHBTc4 extract"}, "[2]": {"target": "Oct4 (Pou5f1) (mouse (endogenous in 46C ESCs)) (UniProt P20263)", "test": "affinity purification with mass spectrometry; immunoprecipitation of endogenous Oct4 (antibody sc-8628 cross-linked to protein G Sepharose) from 1 ml 46C ESC nuclear extract, Benzonase, washes with C-100*, 4°C, boiled in SDS-loading dye; control goat IgG"}, "[3]": {"target": "FLAG-tagged Sall4 (F-Sall4) (mouse) (UniProt Q8BX22)", "test": "affinity purification with mass spectrometry; FLAG-affinity purification of F-Sall4, F-Dax1, F-Tcfcp2l1 or F-Esrrb from nuclear extract of ZHBTc4-derived ESC clones, buffer C-100, Benzonase, FLAG peptide elution; two purifications each without and with doxycycline (16 hr, Oct4 removed); hits present in both -Dox purifications"}}, "note": "Results are given in words; binding and its absence hold for the method and conditions named. Binding seen in cells or lysates may run through a third protein. Here binding means that the protein was enriched with, or labelled near, the bait; the list need not be complete.", "data": [{"binder": "B1", "values": [{"measurement": "binding", "setting": "[1]", "value": "binds"}, {"measurement": "binding", "setting": "[2]", "value": "binds"}, {"measurement": "binding", "setting": "[3]", "value": "binds"}]}, {"binder": "B2", "values": [{"measurement": "binding", "setting": "[3]", "value": "binds"}]}, {"binder": "B3", "values": [{"measurement": "binding", "setting": "[3]", "value": "binds"}]}, {"binder": "B4", "values": [{"measurement": "binding", "setting": "[3]", "value": "binds"}]}, {"binder": "B5", "values": [{"measurement": "binding", "setting": "[3]", "value": "binds"}]}]}
